Test results reported in PubChem BioAssay AID540276 (National Center for Advancing Translational Sciences (NCATS), 2011).
Screen size: about 300,000 compounds; about 5,400 (1.8%) were called active. This list was built around the results that the source calls inconclusive (neither active nor inactive); the mix of calls is not that of the screen. Calls follow the shape of the full dose curve; tested in HEK293 cells. Potencies beside an inconclusive call are fits to weak or partial responses and may not hold up.

Experiment: qHTS for inhibitors of binding or entry into cells for Marburg Virus
Settings: Marburg virus pseudotyped entry inhibition, cell reporter; activity change, negative = inhibition: at 37.8 µM (top of the series) unless noted
% is scaled to controls: 0 for no effect and ±100 for the full control effect; potency is read from the fitted curve at half-maximal effect.

Row | Compound | Potency | activity change, negative = inhibition
1 | Nc1nc2c(s1)CC(c1ccccc1)CC2 (configuration not stated) | inconclusive: 1.78 µM [activator, partial curve, poor fit] | 
2 | Cc1ccc(C(=O)NCCNC(=O)COc2ccc(C)c(C)c2)cn1 | inactive | 
3 | CN(C)c1ccnc(N(Cc2ccccc2)Cc2ccccc2)c1C#N | inconclusive: 20.6 µM [inhibitor, partial curve, poor fit] | 
4 | O=C(NC1CCCC1)C(c1ccccc1F)N(C(=O)Cc1cccs1)c1ccc2c(c1)OCCO2 (configuration not stated) | inconclusive: 14.6 µM [inhibitor, partial curve, poor fit] | 
5 | CC1=CC2=NC(=O)/C(=C\c3ccc(-c4cccc(Cl)c4)o3)C(=N)N2O1 | inconclusive: 22.4 µM [inhibitor, partial curve, poor fit] | 
6 | COc1cccc(-c2cc(C(=O)N3C(C)CCCC3C)no2)c1 (configuration not stated) | inconclusive: 2.59 µM [activator, partial curve, poor fit] | 
7 | Cc1ccc(S(=O)(=O)c2ccc([N+](=O)[O-])cn2)cc1 | active: 3.98 µM | 
8 | COc1ccc(NS(=O)(=O)CC(C)C)c(OC)c1 | inconclusive: 0.562 µM [activator, single point] | 
9 | O=C(/C=C/c1ccccc1Cl)N1CCC(c2nc3ccccc3o2)CC1 | inconclusive: 14.1 µM [activator, partial curve, poor fit] | 
10 | O=C(Nc1ccccc1Br)C(=O)N1CCCC1 | inactive | 
11 | O=S(=O)(c1ccccc1)N1CCN(c2ccnc3cc(Cl)ccc23)CC1 | inconclusive: 11.2 µM [inhibitor, partial curve, poor fit] | 
12 | O=Cc1ccc2noc(-c3ccc(F)cc3)c2c1 | inconclusive: 0.891 µM [activator, single point] | 
13 | Cn1c(-c2ccc(F)cc2)cnc1SCC(=O)Nc1ccccc1 | inactive | 
14 | CCC(=O)Nc1ccc(NC(=O)c2ccco2)cc1 | inactive | 
15 | CCn1cc2nc(SCC(=O)Nc3cc(OC)cc(OC)c3)n(Cc3ccc(Cl)cc3)c(=O)c2n1 | inconclusive: 15.8 µM [inhibitor, single point] | 
16 | CCOC(=O)N1CCN(C(=O)c2ccc(Cn3c(=S)[nH]c4cc(OCC)c(OCC)cc4c3=O)cc2)CC1 | inconclusive: 35.5 µM [inhibitor, single point] | 
17 | O=c1c2cccc(Cl)c2nc2n1Cc1ccccc1-2 | inconclusive: 0.794 µM [activator, full curve, poor fit] | 
18 | COc1ccc(C2(O)CCN(CCCCOc3ccccc3)CC2)cc1 | inconclusive: 14.6 µM [inhibitor, partial curve, poor fit] | 
19 | Cc1nn(CC(=O)NC2CCC(C)CC2)c(=O)c2c1sc1ccccc12 (configuration not stated) | inconclusive: 6.31 µM [inhibitor, single point] | 
20 | Cc1cc(C)c2c(c1)NC(C(=O)O)C1CC=CC21 (configuration not stated) | inactive | 
21 | CC(=O)OC[C@H]1O[C@@H](ON=C[C@@H](C)[C@H](OCc2ccccc2)C(C)C)[C@@H](OC(C)=O)[C@@H](OC(C)=O)[C@@H]1OC(C)=O | inconclusive: 6.68 µM [activator, single point] | 
22 | O=c1c(F)cn(C2CCCO2)c(=O)n1Cc1ccc(Cl)cc1 (configuration not stated) | inactive | 
23 | O=C(c1ccco1)N1CCN(C(=O)C2CC(c3ccc(F)cc3)=NO2)CC1 (configuration not stated) | inconclusive: 2.91 µM [inhibitor, partial curve, poor fit] | 

Row | Compound | Potency | activity change, negative = inhibition
24 | CCn1c(SCC(=O)OC)nnc1-c1ccncc1 | inconclusive: 15.8 µM [inhibitor, single point] | 
25 | O=C(Nc1cccc([N+](=O)[O-])c1)c1ccc(-c2ccccc2)cc1 | inconclusive: 29.1 µM [activator, partial curve, poor fit] | 
26 | Cc1ccn2c(CNCC3OCCc4ccccc43)c(C(=O)N3CCCCCC3)nc2c1 (configuration not stated) | inconclusive: 20 µM [inhibitor, partial curve, poor fit] | 
27 | Cc1ccc2c(c1)N(CC(=O)NCC1CCCO1)C(=O)CO2 (configuration not stated) | inactive | 
28 | COc1cccc(NC(=S)N2CCCN(Cc3ccc(F)cc3)C2)c1 | inconclusive: 35.5 µM [inhibitor, single point] | 
29 | CCCNC(=O)COC(=O)c1c2c(nc3ccccc13)CCC2 | inactive | 
30 | CC1=C(C(=O)OCC2CCCO2)C(c2cccc(C(F)(F)F)c2)C2=C(CC(c3ccco3)CC2=O)N1 (configuration not stated) | inconclusive: 10.3 µM [inhibitor, partial curve, poor fit] | 
31 | Cc1noc(NC(=O)c2ccccc2C(F)(F)F)c1C#N | inconclusive: 6.31 µM [activator, single point] | 
32 | O=C(Nc1ccc2nc(SCC(=O)N3CCOCC3)sc2c1)c1cccc(Br)c1 | inconclusive: 5.01 µM [inhibitor, single point] | 
33 | Cc1cc(C)c(S(=O)(=O)c2ccc(Cl)cc2C)c(Cl)n1 | inactive | 
34 | CC1(C)CC(=O)c2c(-c3cccnc3)n[nH]c2C1 | inconclusive: 0.0058 µM [activator, full curve, poor fit] | 
35 | CCOC(=O)COc1nc(C)cc(C(F)(F)F)c1C#N |  | inconclusive: 1.66% [activator]
36 | CCc1nc(N2CCN(C(=O)c3ccccc3)CC2)c(C#N)c2c1COC(C)(C)C2 | inconclusive: 3.16 µM [activator, single point] | 
37 | CC(=O)c1cccc(NC(=S)NC(=O)c2cccc(Cl)c2)c1 | inconclusive: 3.55 µM [activator, partial curve, poor fit] | 
38 | O=[N+]([O-])c1cc(-c2cnc3ccccc3n2)ccc1Oc1ccc(Br)cc1 | inconclusive: 29.1 µM [inhibitor, single point] | 
39 | CCOc1cc(CNCCc2ccc(S(N)(=O)=O)cc2)ccc1OCC(=O)NC(C)(C)C | inconclusive: 20 µM [inhibitor, single point] | 
40 | COc1cccc(N2CCN(Cc3nc(N)nc(Nc4ccccc4OC)n3)CC2)c1 | inactive | 
41 | COCCn1nnnc1C(C(C)C)N1CCC(Cc2ccccc2)CC1 (configuration not stated) | inconclusive: 18.3 µM [inhibitor, single point] | 
42 | COc1ccccc1NC(=O)N1CCCC1C(=O)Nc1ccc2c(c1)OCO2 (configuration not stated) | inconclusive: 6.51 µM [inhibitor, single point] | 
43 | COc1cc(C(=O)NC(=S)NNC(=O)c2ccc3c(c2)OCO3)cc(OC)c1OC | inactive | 
44 | Cc1cc(C)cc(N(C(=O)c2ccccn2)C(C(=O)NC2CCCCC2)c2cccs2)c1 (configuration not stated) | inconclusive: 23.1 µM [inhibitor, single point] | 
45 | Cc1cc(C(=O)CSc2nnnn2C)c(C)n1-c1cccc(F)c1 | inconclusive: 29.1 µM [inhibitor, single point] | 
46 | CCOC(=O)C1(NC(=O)C2(NC(=O)CN3C(=O)c4ccccc4C3=O)CCCC2)CCCC1 | inconclusive: 1.26 µM [inhibitor, single point] | 

Quoted from the listing.
CCC(=O)Nc1ccc(NC(=O)c2ccco2)cc1 – Potency: inactive
CC1(C)CC(=O)c2c(-c3cccnc3)n[nH]c2C1 – Potency: inconclusive: 0.0058 µM [activator, full curve, poor fit]

One compound at a time (already shown).
CCOc1cc(CNCCc2ccc(S(N)(=O)=O)cc2)ccc1OCC(=O)NC(C)(C)C is listed with Potency: inconclusive: 20 µM [inhibitor, single point]
CCOC(=O)COc1nc(C)cc(C(F)(F)F)c1C#N is listed with activity change, negative = inhibition: inconclusive: 1.66% [activator]

Next compounds

Row | Compound | Potency | activity change, negative = inhibition
47 | COc1ccccc1OCc1ccc(C(=O)NC(C)c2ccccc2)o1 (configuration not stated) | inconclusive: 35.5 µM [inhibitor, single point] | 
48 | C=CCN=C1NC(CCc2ccccc2)C(C(=O)OC)=C(C)N1CC (configuration not stated) | inconclusive: 2.99 µM [inhibitor, single point] | 
49 | CCCNC(=O)[C@@H]1CCCN1C(=O)C1CCN(S(=O)(=O)c2ccc(C)cc2)CC1 | inconclusive: 0.631 µM [activator, full curve, poor fit] | 
50 | COc1cc(/C=N/NC(N)=O)ccc1OC(=O)c1ccco1 | inconclusive: 35.5 µM [activator, single point] | 
51 | O=C(N/N=C/c1cccn1-c1ccccc1)c1ccncc1 | inactive | 
52 | CCC(C)NC(=O)c1nn(-c2ccc(C)cc2)nc1CO (configuration not stated) | inconclusive: 8.91 µM [activator, partial curve, poor fit] | 
53 | Cn1c(SCc2ccc(Br)cc2)nnc1-c1ccccn1 | inconclusive: 6.31 µM [inhibitor, single point] | 
54 | CCCC(c1nnnn1CCC(C)C)N1CCC(C(N)=O)CC1 (configuration not stated) | inactive | 
55 | Cc1c(-c2ccccc2)nc2ccccc2c1C(=O)Oc1ccc([N+](=O)[O-])cc1 | inconclusive: 20 µM [inhibitor, single point] | 
56 | CC(=NCC1CCCO1)c1c(O)n(-c2ccc(Cl)cc2)c(=O)[nH]c1=O (configuration not stated) | inactive | 
57 | CC1=CCC2C(=O)N(c3nc4ccccc4n3C)C(=O)C2C1 (configuration not stated) | inactive | 
58 | O=C1CN(C(=O)COc2ccc(F)cc2Br)c2ccccc2N1 | inactive | 
59 | C=CCN(c1ccccc1)S(=O)(=O)c1cccc(C(=O)Nc2ncccc2C)c1 | inconclusive: 8.91 µM [activator, partial curve] | 
60 | COc1ccc(OC(=O)c2nc(SCc3ccccc3F)ncc2Cl)cc1 | inconclusive: 20 µM [activator, single point] | 
61 | COc1ccccc1Nc1nc(N)nc(CN2CCCCC2)n1 | inactive | 
62 | Cc1cc(C)n(Cc2ccc(C(=O)Nc3cccc(Br)c3)o2)n1 | inconclusive: 12.6 µM [activator, single point] | 
63 | COC(=O)CN1C(=O)c2cccc3cccc1c23 | inconclusive: 35.5 µM [activator, single point] | 
64 | CC1(C)CCCN1CCC(C(N)=O)(c1ccccc1)c1ccccc1 | inconclusive: 1 µM [inhibitor, partial curve, poor fit] | 
65 | CN(C)CCCN(C(=O)/C=C/c1cccs1)c1nc2ccc(F)cc2s1 | active: 8.91 µM | 
66 | Cc1cccc(C)c1Nc1nnc(SCc2nc3ccccc3s2)s1 | inconclusive: 35.5 µM [inhibitor, single point] | 
67 | Cc1ccc(NC2=Nc3ccccc3N3C2=Nc2c(c(C)nn2-c2ccccc2)C3c2ccc(O)c(O)c2)cc1 (configuration not stated) | inconclusive: 35.5 µM [inhibitor, single point] | 
